The test deals with 3xFLAG-hFLNc d18-21-His-EEF, dephosphorylated by PP1c (human) (UniProt Q14315). The test is described as follows: pull-down; 3xFLAG-hFLNc d18-21 immunopurified from HEK293 cells on anti-FLAG beads, treated on beads with or without recombinant PP1c, then incubated with C2 myotube lysate; Western blot of eluates for FILIP1, n = 6; only the target purified. (In western blotting, separated proteins are transferred to a membrane and probed.)

By UniProt entry, the sequences of proteins in these tests, tags left out. Where a name states a change or a piece, a line headed by the entry shows the natural chain unless it says otherwise.
UniProt Q14315: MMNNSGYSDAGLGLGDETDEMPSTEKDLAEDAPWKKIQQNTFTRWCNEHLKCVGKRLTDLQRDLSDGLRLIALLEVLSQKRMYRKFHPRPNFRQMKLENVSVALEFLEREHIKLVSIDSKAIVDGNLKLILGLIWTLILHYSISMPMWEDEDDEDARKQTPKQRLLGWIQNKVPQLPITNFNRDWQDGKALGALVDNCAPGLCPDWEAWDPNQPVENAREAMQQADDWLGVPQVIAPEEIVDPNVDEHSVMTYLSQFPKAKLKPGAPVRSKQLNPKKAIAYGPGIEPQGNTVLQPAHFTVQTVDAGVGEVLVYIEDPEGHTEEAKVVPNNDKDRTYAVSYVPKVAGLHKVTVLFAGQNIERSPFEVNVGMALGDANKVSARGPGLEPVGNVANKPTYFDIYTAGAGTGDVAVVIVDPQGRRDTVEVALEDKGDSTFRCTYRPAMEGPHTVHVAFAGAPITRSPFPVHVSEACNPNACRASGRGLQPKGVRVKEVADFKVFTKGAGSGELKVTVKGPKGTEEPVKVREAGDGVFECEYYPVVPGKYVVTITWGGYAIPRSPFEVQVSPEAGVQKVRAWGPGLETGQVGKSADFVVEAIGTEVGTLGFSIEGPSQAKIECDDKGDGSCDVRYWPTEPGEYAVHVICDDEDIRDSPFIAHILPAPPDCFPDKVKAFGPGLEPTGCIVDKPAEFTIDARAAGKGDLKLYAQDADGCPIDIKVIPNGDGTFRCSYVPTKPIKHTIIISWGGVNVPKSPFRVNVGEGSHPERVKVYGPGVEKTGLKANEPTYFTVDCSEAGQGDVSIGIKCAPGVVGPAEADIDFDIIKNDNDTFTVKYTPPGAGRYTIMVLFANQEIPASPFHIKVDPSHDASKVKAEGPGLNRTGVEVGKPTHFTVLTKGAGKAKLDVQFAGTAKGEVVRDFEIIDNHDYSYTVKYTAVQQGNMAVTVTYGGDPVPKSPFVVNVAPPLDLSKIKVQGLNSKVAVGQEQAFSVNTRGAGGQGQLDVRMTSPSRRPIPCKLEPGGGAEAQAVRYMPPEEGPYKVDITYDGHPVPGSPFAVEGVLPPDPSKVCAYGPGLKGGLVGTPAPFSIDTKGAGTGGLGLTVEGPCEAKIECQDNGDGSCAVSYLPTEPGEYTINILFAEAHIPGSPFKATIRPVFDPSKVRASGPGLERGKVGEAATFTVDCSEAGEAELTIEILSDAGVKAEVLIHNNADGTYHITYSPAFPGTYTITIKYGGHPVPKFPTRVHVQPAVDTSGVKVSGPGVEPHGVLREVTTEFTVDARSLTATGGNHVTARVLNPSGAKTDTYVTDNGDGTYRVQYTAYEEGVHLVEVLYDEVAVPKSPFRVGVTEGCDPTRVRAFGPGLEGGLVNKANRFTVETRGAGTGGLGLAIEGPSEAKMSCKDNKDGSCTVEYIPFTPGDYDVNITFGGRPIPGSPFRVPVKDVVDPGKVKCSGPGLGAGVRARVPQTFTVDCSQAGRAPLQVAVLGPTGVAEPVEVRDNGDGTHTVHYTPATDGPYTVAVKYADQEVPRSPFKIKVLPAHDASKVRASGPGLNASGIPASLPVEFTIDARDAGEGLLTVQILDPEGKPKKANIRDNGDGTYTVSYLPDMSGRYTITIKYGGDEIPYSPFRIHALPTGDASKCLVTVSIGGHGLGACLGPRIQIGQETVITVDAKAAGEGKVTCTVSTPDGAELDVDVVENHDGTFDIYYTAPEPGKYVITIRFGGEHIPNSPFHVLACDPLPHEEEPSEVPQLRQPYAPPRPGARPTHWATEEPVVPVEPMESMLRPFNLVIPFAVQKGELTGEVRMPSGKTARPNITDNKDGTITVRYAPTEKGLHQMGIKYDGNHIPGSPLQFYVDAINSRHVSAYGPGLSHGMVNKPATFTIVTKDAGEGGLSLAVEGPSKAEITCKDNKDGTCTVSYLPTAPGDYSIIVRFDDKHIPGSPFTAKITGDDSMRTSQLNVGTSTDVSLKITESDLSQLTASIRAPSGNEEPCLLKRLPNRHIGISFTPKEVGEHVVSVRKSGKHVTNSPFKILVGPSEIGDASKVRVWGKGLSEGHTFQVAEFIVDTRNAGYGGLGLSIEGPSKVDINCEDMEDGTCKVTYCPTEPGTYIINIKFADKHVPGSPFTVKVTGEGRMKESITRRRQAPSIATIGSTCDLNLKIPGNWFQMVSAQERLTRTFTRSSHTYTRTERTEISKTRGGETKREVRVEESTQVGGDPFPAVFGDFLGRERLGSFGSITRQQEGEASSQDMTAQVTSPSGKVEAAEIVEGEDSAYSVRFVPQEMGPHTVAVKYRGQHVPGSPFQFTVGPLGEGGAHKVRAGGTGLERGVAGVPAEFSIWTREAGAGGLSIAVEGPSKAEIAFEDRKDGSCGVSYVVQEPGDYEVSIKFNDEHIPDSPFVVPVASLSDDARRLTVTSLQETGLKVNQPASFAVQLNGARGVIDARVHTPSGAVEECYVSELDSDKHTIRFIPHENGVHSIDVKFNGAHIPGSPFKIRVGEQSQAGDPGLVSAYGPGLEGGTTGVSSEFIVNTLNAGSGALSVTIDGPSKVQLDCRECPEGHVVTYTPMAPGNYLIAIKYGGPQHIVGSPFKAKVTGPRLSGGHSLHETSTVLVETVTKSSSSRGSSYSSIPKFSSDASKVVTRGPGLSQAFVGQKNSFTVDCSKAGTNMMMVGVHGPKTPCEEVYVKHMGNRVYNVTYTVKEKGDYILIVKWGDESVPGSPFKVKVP

Results are given in words; binding and its absence hold for the method and conditions named. Binding seen in cells or lysates may run through a third protein. Binding calls can cover weak binding; strength is not graded here.

B1: filamin-A-interacting protein 1 (FILIP1), endogenous in C2 myotubes (protein, UniProt Q9CS72 1-1214)
chain: MRSRNQGGESSSNGHVSCPKPSIISSDGGKGPSEDAKKNKANRKGEDDVMASGTVKRHLKPSGESEKKTKKPLELSKEDLIQLLSIMEGELQAREDVIHMLKTEKTKPEVLEAHYGSAEPEKVLRVLHRDAILAQEKSIGEDVYEKPISELDRLEEKQKETYRRMLEQLLLAEKCHRRTVYELENEKHKHTDYMNKSDDFTNLLEQERERLKKLLEQEKAYQARKEKENAKRLNKLRDELVKLKSFALMLVDERQMHIEQLGLQSQKVQDLTQKLREEEEKLKAITYKSKEDRQKLLKLEVDFEHKASRFSQEHEEMNAKLANQESHNRQLRLKLVGLSQRIEELEETNKSLQKAEEELQELRDKIAKGECGNSSLMAEVESLRKRVLEMEGKDEEITKTEAQCRELKKKLQEEEHHSKELRLEVEKLQKRMSELEKLEEAFSRSKSECTQLHLNLEKEKNLTKDLLNELEVVKSRVKELECSESRLEKVELSLKDDLTKLKSFTVMLVDERKNMMEKIKQEERKVDGLNKNFKVEQGKVMDVTEKLIEESKKLLKLKSEMEEKVYSLTKERDELMGKLRSEEERSCELSCSVDLLKKRLDGIEEVEREINRGRLCKGSEFTCPEDNKIRELTLEIERLKKRLQQLEVVEGDLMKTEDEYDQLEQKFRTEQDKANFLSQQLEEIKHQMAKNKAIEKGEAVSQEAELRHRFRMEEAKSRDLQAEVQALKEKIHELMNKEDQLSQLQVDYSVLQQRFMEEETKNKNMGREVLNLTKELELSKRYSRALRPSGNGRRMVDVPVASTGVQTEAVCGDAAEEETPAVFIRKSFQEENHIMSNLRQVGLKKPMERSSVLDRYPPAANELTMRKSWIPWMRKRENGPSAPQEKGPRPNQGTGHPGELVLAPKQGQPLHIRVTPDHENSTATLEITSPTSEEFFSSTTVIPTLGNQKPRITIIPSPNVMSQKPKSADPTLGPERAMSPVTITTISREKSPEGGRGAFADRPASPIQIMTVSTSAAPPEIAVSPDSQEVPMGRTILKVTPEKQTVPTPMRKYNANANIITTEDNKIHIHLGSQFKRSPGPAAAEGVSPVITVRPVNVTAEKEVSTGTVLRSPRNHLSSRPGANKVTSTITITPVTTSSTRGTQSVSGQDGSSQRPTPTRIPMSKGMKAGKPVVAAPGAGNLTKFQPRAETQSMKIELKKSAASSTASLGGGKG
Consider B1, for which the binding result was “binds”.

The values above are taken from PMC11550807.
